Article PMC5773591, “Structural basis of trans-synaptic interactions between PTPδ and SALMs for inducing synapse formation” (Nature Communications, 2018)
Positions count from the first letter of the chain named. Names and notes keep the numbering of the source. No constants are given. Whether binding was seen depends on the method and setting. Sequences can lack the tags named with a protein.

B1: human SALM5 LRR–Ig-His6 N158A (domain or fragment, UniProt Q96NI6 18-378)
chain: QICPKRCVCQILSPNLATLCAKKGLLFVPPNIDRRTVELRLADNFVTNIKRKDFANMTSLVDLTLSRNTISFITPHAFADLRNLRALHLNSNRLTKITNDMFSGLSNLHHLILNNNQLTLISSTAFDDVFALEELDLSYNALETIPWDAVEKMVSLHTLSLDHNMIDNIPKGTFSHLHKMTRLDVTSNKLQKLPPDPLFQRAQVLATSGIISPSTFALSFGGNPLHCNCELLWLRRLSREDDLETCASPPLLTGRYFWSIPEEEFLCEPPLITRHTHEMRVLEGQRATLRCKARGDPEPAIHWISPEGKLISNATRSLVYDNGTLDILITTVKDTGAFTCIASNPAGEATQIVDLHIIKLP
B2: human SALM5 LRR–Ig-His6 Q134N (domain or fragment, UniProt Q96NI6 18-378)
chain: B1 chain with Q117N, A141N

Legend:
[1] = target: human SALM5 LRR–Ig-His6 N158A (human) (UniProt Q96NI6); assay: SEC-MALS; SALM LRR–Ig proteins at 0.5 g/L on ENrich SEC 650 in 20 mM Tris-HCl (pH 7.4), 250 mM NaCl; dimer of monomers; both purified
[2] = target: human SALM5 LRR–Ig-His6 Q134N (human) (UniProt Q96NI6); assay: as above

Binder	binding [1]	binding [2]
B1	no binding (tested: 0.5 g L^−1)	–
B2	–	no binding (tested: 0.5 g L^−1)
